Measured values as given in the supplement of paper PMC10849652.
This is one part of the list.

By UniProt entry, the sequences of proteins in these tests, tags left out. Where a name states a change or a piece, a line headed by the entry shows the natural chain unless it says otherwise.
UniProt Q9UL46, whole entry, looked up: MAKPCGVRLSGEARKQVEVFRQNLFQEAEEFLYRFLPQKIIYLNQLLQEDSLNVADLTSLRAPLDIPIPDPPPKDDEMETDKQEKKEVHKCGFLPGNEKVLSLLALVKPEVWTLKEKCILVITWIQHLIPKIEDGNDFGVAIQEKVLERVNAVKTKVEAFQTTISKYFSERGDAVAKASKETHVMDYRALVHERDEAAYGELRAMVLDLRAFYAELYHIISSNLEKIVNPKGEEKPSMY
UniProt Q9H974: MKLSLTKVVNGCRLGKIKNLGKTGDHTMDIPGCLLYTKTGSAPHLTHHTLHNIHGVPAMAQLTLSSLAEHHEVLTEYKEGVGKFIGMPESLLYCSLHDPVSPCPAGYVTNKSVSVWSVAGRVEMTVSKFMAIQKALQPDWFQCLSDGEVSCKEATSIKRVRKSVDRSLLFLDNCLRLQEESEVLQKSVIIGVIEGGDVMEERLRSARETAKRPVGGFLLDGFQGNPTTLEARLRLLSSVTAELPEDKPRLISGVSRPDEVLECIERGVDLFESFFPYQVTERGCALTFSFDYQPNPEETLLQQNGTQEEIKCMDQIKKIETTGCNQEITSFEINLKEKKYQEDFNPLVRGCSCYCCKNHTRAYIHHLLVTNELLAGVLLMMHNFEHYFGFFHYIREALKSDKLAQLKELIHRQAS
UniProt Q9NR77: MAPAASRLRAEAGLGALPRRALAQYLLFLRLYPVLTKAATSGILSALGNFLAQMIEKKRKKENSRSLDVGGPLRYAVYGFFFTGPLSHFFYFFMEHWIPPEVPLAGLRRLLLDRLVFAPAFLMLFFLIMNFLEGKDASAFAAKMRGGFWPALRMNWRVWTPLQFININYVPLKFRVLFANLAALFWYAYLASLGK
UniProt Q15269: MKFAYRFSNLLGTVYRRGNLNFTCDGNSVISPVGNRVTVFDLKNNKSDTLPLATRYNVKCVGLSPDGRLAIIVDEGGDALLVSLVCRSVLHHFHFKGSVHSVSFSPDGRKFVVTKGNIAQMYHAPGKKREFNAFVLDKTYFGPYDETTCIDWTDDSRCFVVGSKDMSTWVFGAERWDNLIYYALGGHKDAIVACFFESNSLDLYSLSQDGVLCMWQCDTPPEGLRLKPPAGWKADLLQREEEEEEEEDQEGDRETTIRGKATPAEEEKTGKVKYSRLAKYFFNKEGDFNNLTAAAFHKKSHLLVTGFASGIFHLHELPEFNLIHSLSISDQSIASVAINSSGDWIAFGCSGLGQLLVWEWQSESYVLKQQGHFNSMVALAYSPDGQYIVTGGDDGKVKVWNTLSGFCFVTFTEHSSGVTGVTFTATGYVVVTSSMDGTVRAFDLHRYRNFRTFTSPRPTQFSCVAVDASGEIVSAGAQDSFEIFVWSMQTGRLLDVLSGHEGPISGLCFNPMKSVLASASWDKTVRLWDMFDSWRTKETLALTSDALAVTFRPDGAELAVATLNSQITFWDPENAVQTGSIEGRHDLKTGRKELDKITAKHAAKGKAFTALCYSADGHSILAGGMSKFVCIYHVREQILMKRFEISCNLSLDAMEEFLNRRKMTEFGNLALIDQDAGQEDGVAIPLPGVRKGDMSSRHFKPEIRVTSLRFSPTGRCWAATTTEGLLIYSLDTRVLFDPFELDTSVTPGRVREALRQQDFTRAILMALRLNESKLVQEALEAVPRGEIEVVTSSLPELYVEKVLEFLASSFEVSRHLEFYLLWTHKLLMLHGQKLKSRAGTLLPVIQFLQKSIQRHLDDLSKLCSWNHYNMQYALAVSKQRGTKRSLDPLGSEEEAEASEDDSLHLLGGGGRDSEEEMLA
UniProt Q96I23: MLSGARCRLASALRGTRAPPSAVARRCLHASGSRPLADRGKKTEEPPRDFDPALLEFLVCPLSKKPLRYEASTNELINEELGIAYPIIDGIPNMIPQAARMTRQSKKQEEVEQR
UniProt P23219, whole entry, looked up: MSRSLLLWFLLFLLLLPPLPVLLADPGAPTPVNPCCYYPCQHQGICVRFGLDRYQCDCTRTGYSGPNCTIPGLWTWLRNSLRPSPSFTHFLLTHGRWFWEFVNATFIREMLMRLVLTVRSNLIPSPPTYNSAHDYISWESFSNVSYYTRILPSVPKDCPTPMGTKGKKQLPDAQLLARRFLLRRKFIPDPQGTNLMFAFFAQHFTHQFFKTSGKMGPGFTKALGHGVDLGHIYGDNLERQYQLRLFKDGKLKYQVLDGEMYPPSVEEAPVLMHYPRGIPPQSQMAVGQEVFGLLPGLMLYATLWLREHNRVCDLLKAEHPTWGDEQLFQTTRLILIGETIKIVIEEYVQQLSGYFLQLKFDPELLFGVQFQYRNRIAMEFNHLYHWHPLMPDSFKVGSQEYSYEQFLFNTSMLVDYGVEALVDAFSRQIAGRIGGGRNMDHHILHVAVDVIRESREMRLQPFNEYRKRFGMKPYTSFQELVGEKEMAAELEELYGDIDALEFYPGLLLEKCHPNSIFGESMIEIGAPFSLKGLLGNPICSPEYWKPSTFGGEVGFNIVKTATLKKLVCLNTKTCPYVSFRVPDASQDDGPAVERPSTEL
UniProt P60900, whole entry, looked up: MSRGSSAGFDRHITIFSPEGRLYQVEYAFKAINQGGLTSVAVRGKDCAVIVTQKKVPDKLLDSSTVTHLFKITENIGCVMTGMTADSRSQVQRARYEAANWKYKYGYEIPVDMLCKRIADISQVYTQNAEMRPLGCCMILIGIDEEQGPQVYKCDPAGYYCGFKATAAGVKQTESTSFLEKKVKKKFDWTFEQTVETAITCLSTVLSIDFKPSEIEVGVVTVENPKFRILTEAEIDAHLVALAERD
UniProt Q6PGN9: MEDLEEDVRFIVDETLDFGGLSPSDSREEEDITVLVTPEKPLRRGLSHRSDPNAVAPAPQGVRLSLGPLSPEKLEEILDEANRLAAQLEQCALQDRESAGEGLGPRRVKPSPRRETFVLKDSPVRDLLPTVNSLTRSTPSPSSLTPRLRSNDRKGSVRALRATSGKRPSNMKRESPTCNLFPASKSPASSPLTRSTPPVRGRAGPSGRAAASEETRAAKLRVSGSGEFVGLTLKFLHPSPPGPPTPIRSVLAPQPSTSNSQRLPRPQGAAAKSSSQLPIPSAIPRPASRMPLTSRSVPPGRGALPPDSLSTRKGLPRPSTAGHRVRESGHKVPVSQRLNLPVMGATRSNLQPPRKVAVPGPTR
UniProt Q9H0K6: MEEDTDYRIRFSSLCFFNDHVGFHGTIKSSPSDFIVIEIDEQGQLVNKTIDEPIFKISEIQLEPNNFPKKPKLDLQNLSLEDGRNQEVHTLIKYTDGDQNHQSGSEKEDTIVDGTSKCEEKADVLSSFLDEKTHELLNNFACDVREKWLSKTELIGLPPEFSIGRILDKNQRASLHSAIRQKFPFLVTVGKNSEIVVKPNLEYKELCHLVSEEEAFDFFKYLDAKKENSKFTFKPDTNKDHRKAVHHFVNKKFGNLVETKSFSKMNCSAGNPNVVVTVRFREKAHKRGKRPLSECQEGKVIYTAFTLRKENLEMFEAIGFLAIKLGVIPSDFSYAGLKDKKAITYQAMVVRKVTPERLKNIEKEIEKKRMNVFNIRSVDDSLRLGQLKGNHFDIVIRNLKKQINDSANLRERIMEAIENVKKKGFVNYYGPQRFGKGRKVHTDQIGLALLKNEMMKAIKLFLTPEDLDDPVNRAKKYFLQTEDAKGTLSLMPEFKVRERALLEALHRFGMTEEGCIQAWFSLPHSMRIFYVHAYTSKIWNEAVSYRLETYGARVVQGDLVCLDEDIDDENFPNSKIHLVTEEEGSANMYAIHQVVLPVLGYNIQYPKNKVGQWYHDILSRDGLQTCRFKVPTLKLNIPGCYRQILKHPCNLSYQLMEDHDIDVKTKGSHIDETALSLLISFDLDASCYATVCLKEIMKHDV
UniProt P78330: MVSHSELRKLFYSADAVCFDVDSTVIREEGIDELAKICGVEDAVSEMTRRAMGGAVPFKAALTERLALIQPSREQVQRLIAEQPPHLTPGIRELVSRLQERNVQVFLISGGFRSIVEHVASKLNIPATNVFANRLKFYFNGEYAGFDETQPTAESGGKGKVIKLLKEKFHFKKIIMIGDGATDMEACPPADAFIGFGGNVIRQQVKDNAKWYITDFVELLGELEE
UniProt Q9BRX8: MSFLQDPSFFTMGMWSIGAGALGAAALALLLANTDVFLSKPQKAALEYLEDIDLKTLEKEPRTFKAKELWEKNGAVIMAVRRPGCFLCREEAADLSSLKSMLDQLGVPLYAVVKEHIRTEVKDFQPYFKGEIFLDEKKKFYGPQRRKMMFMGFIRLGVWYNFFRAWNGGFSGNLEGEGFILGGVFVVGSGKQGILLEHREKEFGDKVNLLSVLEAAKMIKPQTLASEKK
UniProt Q8TB72: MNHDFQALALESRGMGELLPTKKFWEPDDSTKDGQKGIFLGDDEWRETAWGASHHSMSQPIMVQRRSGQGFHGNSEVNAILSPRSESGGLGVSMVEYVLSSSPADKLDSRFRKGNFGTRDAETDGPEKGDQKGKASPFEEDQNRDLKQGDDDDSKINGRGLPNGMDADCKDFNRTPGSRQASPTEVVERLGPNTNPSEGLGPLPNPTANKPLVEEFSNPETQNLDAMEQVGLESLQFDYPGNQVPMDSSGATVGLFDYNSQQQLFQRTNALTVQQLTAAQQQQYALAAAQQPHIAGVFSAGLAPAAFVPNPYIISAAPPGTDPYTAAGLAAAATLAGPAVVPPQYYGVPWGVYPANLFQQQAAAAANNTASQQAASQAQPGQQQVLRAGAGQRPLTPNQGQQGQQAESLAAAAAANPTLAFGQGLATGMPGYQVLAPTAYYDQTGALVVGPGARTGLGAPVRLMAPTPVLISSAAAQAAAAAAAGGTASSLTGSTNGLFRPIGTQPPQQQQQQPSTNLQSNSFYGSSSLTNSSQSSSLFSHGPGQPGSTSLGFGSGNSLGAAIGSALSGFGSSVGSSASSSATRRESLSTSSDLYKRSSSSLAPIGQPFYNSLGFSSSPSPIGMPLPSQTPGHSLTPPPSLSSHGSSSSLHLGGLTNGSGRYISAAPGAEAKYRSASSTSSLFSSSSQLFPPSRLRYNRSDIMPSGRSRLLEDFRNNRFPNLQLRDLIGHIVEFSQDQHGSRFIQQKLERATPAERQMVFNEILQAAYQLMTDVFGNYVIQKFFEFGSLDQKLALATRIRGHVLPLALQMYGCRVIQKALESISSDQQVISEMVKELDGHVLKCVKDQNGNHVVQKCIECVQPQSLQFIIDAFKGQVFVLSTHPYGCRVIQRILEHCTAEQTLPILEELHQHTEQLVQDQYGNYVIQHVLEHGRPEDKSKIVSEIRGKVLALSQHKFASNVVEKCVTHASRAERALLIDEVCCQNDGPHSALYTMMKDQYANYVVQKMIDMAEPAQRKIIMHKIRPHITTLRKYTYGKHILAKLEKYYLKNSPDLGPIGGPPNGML
UniProt Q3MIT2: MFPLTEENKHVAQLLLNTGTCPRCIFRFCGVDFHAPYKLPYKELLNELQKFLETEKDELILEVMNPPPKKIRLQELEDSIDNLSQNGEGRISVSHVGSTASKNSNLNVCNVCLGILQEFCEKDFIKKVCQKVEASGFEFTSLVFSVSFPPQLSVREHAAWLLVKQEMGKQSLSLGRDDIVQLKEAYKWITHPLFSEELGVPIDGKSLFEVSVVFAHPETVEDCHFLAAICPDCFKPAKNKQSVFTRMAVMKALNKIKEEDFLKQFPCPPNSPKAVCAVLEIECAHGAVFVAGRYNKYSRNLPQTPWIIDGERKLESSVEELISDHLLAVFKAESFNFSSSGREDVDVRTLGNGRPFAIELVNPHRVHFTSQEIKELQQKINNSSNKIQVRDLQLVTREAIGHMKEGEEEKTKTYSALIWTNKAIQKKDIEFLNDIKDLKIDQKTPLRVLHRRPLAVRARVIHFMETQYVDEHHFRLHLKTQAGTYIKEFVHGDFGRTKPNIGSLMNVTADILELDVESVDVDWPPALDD
UniProt Q06323: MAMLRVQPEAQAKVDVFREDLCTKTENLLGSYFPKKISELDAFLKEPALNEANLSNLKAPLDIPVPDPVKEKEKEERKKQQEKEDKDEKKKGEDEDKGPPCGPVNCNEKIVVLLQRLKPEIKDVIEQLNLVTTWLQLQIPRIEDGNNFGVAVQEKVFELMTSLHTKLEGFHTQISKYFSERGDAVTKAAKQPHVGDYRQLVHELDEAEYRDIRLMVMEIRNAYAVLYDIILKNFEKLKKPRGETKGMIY
UniProt Q9Y617: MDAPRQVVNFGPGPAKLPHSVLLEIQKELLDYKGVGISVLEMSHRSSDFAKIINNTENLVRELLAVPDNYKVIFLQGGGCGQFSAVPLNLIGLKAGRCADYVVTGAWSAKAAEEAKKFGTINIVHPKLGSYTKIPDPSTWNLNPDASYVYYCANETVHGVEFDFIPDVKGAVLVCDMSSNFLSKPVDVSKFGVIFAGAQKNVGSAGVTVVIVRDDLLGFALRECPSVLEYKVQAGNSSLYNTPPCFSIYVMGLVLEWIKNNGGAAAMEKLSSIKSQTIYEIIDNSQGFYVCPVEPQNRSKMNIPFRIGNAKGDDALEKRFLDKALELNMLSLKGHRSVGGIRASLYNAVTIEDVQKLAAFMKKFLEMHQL

What was measured:
Experiment in all cases: log2 fold change, soluble protein after heating vs DMSO (PISA); higher = thermal stabilisation; K562 cells, 10 uM, 30 min; active = over 0.2 and 3.5 SD of the protein, either way, in both replicates (recomputed)
[1] = compound: CS(=O)(=O)c1ccc(-c2cnc(N)c(C(=O)Nc3ccccc3)n2)cc1
Method in brief: (§1)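 Thermal stability values are relative to control samples and come from duplicates. They are expressed as log2 fold changes. For measurement, K562 cells (2×10^6 cells/mL) received 10 μM compound for 30 min, and aliquots were heated for 3 min over 48°C-58°C, pooled, and extracted at 4°C in PBS with 0.5% NP-40. Soluble protein, the supernatant after 21,000xg for 90 min, was quantified by TMTpro 16plex LC-MS/MS with equalised channel sums.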

crizotinib = compound: C[C@@H](Oc1cc(-c2cnn(C3CCNCC3)c2)cnc1N)c1c(Cl)ccc(F)c1Cl [crizotinib]
Method in brief: as §1

[2] = compound: C[C@@H]1COCCN1C2=NC(=NC(=C2)C3(CC3)S(=O)(=O)C)C4=C5C=CNC5=CC=C4
Method in brief: as §1

[3] = compound: C[C@H](C1=CC=C(C=C1)C(=O)NC2=C3C=CNC3=NC=C2)N
Method in brief: as §1

duvelisib = compound: C[C@H](Nc1ncnc2nc[nH]c12)c1cc2cccc(Cl)c2c(=O)n1-c1ccccc1 [duvelisib]
Method in brief: as §1

gandotinib = compound: Cc1cc(Nc2cc(CN3CCOCC3)c3nc(C)c(Cc4ccc(Cl)cc4F)n3n2)n[nH]1 [gandotinib]
Method in brief: as §1

tozasertib = compound: Cc1cc(Nc2cc(N3CCN(C)CC3)nc(Sc3ccc(NC(=O)C4CC4)cc3)n2)n[nH]1 [tozasertib]
Method in brief: as §1

[4] = compound: Cc1cc(SCc2sc(-c3ccc(C(F)(F)F)cc3)nc2C)ccc1OCC(=O)O
Method in brief: as §1

doramapimod = compound: Cc1ccc(-n2nc(C(C)(C)C)cc2NC(=O)Nc2ccc(OCCN3CCOCC3)c3ccccc23)cc1 [doramapimod]
Method in brief: as §1

ispinesib = compound: Cc1ccc(C(=O)N(CCCN)[C@@H](c2nc3cc(Cl)ccc3c(=O)n2Cc2ccccc2)C(C)C)cc1 [ispinesib]
Method in brief: as §1

Measured: log2 fold change

PSME2 (UniProt Q9UL46)
inactive: [1] 0.019 | crizotinib -0.027 | [2] 0.076 | [3] -0.127 | duvelisib 0.031 | gandotinib -0.205 | tozasertib -0.023 | [4] 0.025 | doramapimod -0.016 | ispinesib 0.025

QTRT2 isoform 4 (UniProt Q9H974)
inactive: [1] 0.043 | crizotinib -0.011 | [2] 0.045 | [3] 0.003 | duvelisib 0.058 | gandotinib 0.035 | tozasertib -0.043 | [4] -0.014 | doramapimod 0.01 | ispinesib 0.043

PXMP2 (UniProt Q9NR77)
inactive: [1] -0.007 | crizotinib 0.066 | [2] 0.078 | [3] -0.078 | duvelisib 0.052 | gandotinib 0.02 | tozasertib -0.041 | [4] -0.024 | doramapimod -0.014 | ispinesib 0.031

QSOX1 (UniProt O00391)
inactive: [1] -0.042 | crizotinib -0.019 | [2] -0.011 | [3] -0.075 | duvelisib -0.08 | gandotinib -0.007 | tozasertib -0.152 | [4] 0.108 | doramapimod -0.081 | ispinesib 0.002

PSMB1 (UniProt P20618)
inactive: [1] 0.009 | crizotinib 0.068 | [2] -0.05 | [3] 0.059 | duvelisib -0.04 | gandotinib -0.074 | tozasertib 0.005 | [4] 0.034 | doramapimod 0.021 | ispinesib 0.021

PSMD14 (UniProt O00487)
inactive: [1] 0.037 | crizotinib -0.026 | [2] 0.041 | [3] 0.102 | duvelisib -0.068 | gandotinib -0.009 | tozasertib 0.034 | [4] 0.024 | doramapimod 0.076 | ispinesib -0.016

PSME3 isoform 2 (UniProt P61289)
inactive: [1] 0.007 | crizotinib 0.029 | [2] -0.013 | [3] -0.052 | duvelisib 0.001 | gandotinib 0.044 | tozasertib -0.022 | [4] -0.04 | doramapimod -0.017 | ispinesib 0.034

PYCR3 (UniProt Q53H96)
inactive: [1] -0.016 | crizotinib 0.014 | [2] -0.004 | [3] -0.057 | duvelisib 0.025 | gandotinib -0.024 | tozasertib -0.034 | [4] -0.018 | doramapimod -0.022 | ispinesib 0.011

PWP1 (UniProt Q13610)
inactive: [1] -0.04 | crizotinib 0.036 | [2] -0.583 | [3] 0.37 | duvelisib -0.277 | gandotinib 0.376 | tozasertib -0.014 | [4] -0.047 | doramapimod 0.21 | ispinesib -0.176

PWP2 (UniProt Q15269)
inactive: [1] -0.072 | crizotinib 0.006 | [2] -0.165 | [3] 0.18 | duvelisib -0.061 | gandotinib 0.143 | tozasertib 0.058 | [4] 0.007 | doramapimod 0.068 | ispinesib 0.044

PYURF (UniProt Q96I23)
inactive: [1] -0.016 | crizotinib 0.064 | [2] 0.031 | [3] 0.032 | duvelisib 0.083 | gandotinib 0.1 | tozasertib -0.043 | [4] -0.111 | doramapimod -0.028

PZP (UniProt P20742)
inactive: [1] -0.07 | crizotinib 0.087 | [2] -0.069 | [3] 0.163 | duvelisib -0.18 | gandotinib 0.178 | tozasertib -0.057 | [4] -0.065 | doramapimod 0.145 | ispinesib -0.039

PSMB10 (UniProt P40306)
inactive: [1] 0.05

PRTFDC1 (UniProt Q9NRG1)
inactive: [1] -0.005 | crizotinib 0.018 | [2] -0.005 | [3] -0.093 | duvelisib -0.007 | gandotinib 0.014 | tozasertib -0.039 | [4] -0.007 | doramapimod -0.096 | ispinesib 0.011

PXMP4 (UniProt Q9Y6I8)
inactive: [1] 0 | crizotinib 0.179 | [2] 0.051 | [3] -0.134 | duvelisib 0.035 | gandotinib 0.022 | tozasertib 0.028 | [4] 0.023 | doramapimod -0.088 | ispinesib -0.007

PTGS1 isoform 6 (UniProt P23219)
inactive: [1] 0.005 | crizotinib 0.016 | [2] -0.005 | [3] -0.127 | duvelisib 0.067 | gandotinib -0.022 | tozasertib -0.023 | [4] -0.039 | doramapimod 0.035 | ispinesib 0.012

PSMA6 (UniProt P60900)
inactive: [1] -0.026 | crizotinib 0.087 | [2] -0.041 | [3] 0.021 | duvelisib -0.023 | gandotinib 0.013 | tozasertib 0.009 | [4] 0.008 | doramapimod -0.016 | ispinesib 0.064

PSRC1 (UniProt Q6PGN9)
inactive: [1] -0.036 | crizotinib -0.081 | [2] -0.063 | [3] 0.176 | duvelisib -0.047 | gandotinib -0.178 | tozasertib -0.085 | [4] 0.023 | doramapimod 0.041 | ispinesib -0.039

PSIP1 (UniProt O75475)
inactive: [1] -0.07 | crizotinib 0.014 | [2] -0.265 | [3] 0.106 | duvelisib -0.068 | gandotinib 0.041 | tozasertib 0.01 | [4] -0.02 | doramapimod 0.021 | ispinesib -0.178

PUS7L (UniProt Q9H0K6)
inactive: [1] -0.006 | crizotinib 0.028 | [2] 0.065 | [3] 0.004 | duvelisib -0.031 | gandotinib -0.002 | tozasertib 0.012 | [4] -0.014 | doramapimod 0.006 | ispinesib -0.032

PSPH (UniProt P78330)
inactive: [1] 0.022 | crizotinib 0.054 | [2] 0.096 | [3] -0.003 | duvelisib 0.054 | gandotinib 0.013 | tozasertib -0.035 | [4] 0 | doramapimod -0.037 | ispinesib 0.053

Random excerpt: two entries already listed.
PTGS1 isoform 6 (UniProt P23219)
inactive: [1] 0.005 | crizotinib 0.016 | [2] -0.005 | [3] -0.127 | duvelisib 0.067 | gandotinib -0.022 | tozasertib -0.023 | [4] -0.039 | doramapimod 0.035 | ispinesib 0.012

QTRT2 isoform 4 (UniProt Q9H974)
inactive: [1] 0.043 | crizotinib -0.011 | [2] 0.045 | [3] 0.003 | duvelisib 0.058 | gandotinib 0.035 | tozasertib -0.043 | [4] -0.014 | doramapimod 0.01 | ispinesib 0.043

Going on with the list:

PSAP isoform 3 (UniProt P07602)
inactive: [1] 0.037 | crizotinib -0.023 | [2] 0.138 | [3] -0.02 | duvelisib 0.069 | gandotinib -0.048 | tozasertib 0.033 | [4] 0.002 | doramapimod -0.016 | ispinesib 0.099

PRXL2A (UniProt Q9BRX8)
inactive: [1] 0.031 | crizotinib 0.054 | [2] 0.131 | [3] -0.014 | duvelisib 0 | gandotinib -0.212 | tozasertib -0.235 | [4] -0.024 | doramapimod 0.034

PTPRC (UniProt P08575)
inactive: [1] 0.013 | crizotinib 0.156 | [2] 0.058 | [3] -0.102 | duvelisib 0.068 | gandotinib -0.035 | tozasertib -0.022 | [4] -0.006 | doramapimod 0.003 | ispinesib 0.141

PXN (UniProt P49023)
inactive: [1] -0.059 | crizotinib -0.022 | [2] 0.043 | [3] -0.04 | duvelisib 0.01 | gandotinib 0.012 | tozasertib -0.02 | [4] -0.034 | doramapimod -0.091 | ispinesib 0.038

PUM2 (UniProt Q8TB72)
inactive: [1] -0.045 | crizotinib 0.014 | [2] -0.072 | [3] 0.053 | duvelisib 0.138 | gandotinib -0.014 | tozasertib -0.029 | [4] -0.027 | doramapimod -0.019 | ispinesib -0.071

PUS10 (UniProt Q3MIT2)
inactive: [1] -0.012 | crizotinib 0.02 | [2] 0.078 | [3] -0.08 | duvelisib 0.008 | gandotinib -0.141 | tozasertib -0.067 | [4] 0.057 | doramapimod 0.024 | ispinesib 0.048

PTCD3 (UniProt Q96EY7)
inactive: [1] -0.033 | crizotinib -0.012 | [2] -0.006 | [3] 0.169 | duvelisib -0.032 | gandotinib -0.034 | tozasertib 0.019 | [4] 0.072 | doramapimod -0.013 | ispinesib -0.228

PSME1 (UniProt Q06323)
inactive: [1] -0.007 | crizotinib -0.016 | [2] 0.103 | [3] -0.085 | duvelisib 0.029 | gandotinib -0.016 | tozasertib 0.03 | [4] 0.004 | doramapimod 0.007 | ispinesib 0.018

QDPR (UniProt P09417)
inactive: [1] -0.012 | crizotinib 0.037 | [2] -0.013 | [3] -0.028 | duvelisib -0.01 | gandotinib 0.048 | tozasertib -0.034 | [4] -0.021 | doramapimod 0 | ispinesib 0.021

PSAT1 (UniProt Q9Y617)
inactive: [1] -0.011 | crizotinib 0.035 | [2] -0.026 | [3] -0.056 | duvelisib 0.005 | gandotinib 0.011 | tozasertib -0.004 | [4] -0.031 | doramapimod -0.044 | ispinesib 0.066
